Test system: acidic compartment
Assay: pH estimate of acidic compartments from 440 nm/560 nm emission ratio
Type: cell-based

## N#Cc1ccc(-c2nn[n]([Re](=[C]=O)(=[C]=O)=[C]=O)n2)cc1.c1cnc2c(c1)ccc1cccnc12 [PhenCyano, Triscarbonyl phenanthroline (4-cyanophenyltetrazolato)Rhenium(I)]
Confocal microscopy
  ratio of emission at 440 nm to 560 nm in an acidic compartment: 1.29
Ratio applied to FIG. 14, assuming pH<6
  pH of the acidic compartment read from the ratio plot: ~3.70 pH

Reference: patent US20170328922A1, “METHODS AND PRODUCTS FOR LABELLING LIPIDS” (UNIVERSITY OF SOUTH AUSTRALIA, priority 2014, published 2017)
